Test [1] addresses T1, KDM4B, endogenous in MOVAS cells (mouse (endogenous in MOVAS)), Q91VY5.
T1 chain: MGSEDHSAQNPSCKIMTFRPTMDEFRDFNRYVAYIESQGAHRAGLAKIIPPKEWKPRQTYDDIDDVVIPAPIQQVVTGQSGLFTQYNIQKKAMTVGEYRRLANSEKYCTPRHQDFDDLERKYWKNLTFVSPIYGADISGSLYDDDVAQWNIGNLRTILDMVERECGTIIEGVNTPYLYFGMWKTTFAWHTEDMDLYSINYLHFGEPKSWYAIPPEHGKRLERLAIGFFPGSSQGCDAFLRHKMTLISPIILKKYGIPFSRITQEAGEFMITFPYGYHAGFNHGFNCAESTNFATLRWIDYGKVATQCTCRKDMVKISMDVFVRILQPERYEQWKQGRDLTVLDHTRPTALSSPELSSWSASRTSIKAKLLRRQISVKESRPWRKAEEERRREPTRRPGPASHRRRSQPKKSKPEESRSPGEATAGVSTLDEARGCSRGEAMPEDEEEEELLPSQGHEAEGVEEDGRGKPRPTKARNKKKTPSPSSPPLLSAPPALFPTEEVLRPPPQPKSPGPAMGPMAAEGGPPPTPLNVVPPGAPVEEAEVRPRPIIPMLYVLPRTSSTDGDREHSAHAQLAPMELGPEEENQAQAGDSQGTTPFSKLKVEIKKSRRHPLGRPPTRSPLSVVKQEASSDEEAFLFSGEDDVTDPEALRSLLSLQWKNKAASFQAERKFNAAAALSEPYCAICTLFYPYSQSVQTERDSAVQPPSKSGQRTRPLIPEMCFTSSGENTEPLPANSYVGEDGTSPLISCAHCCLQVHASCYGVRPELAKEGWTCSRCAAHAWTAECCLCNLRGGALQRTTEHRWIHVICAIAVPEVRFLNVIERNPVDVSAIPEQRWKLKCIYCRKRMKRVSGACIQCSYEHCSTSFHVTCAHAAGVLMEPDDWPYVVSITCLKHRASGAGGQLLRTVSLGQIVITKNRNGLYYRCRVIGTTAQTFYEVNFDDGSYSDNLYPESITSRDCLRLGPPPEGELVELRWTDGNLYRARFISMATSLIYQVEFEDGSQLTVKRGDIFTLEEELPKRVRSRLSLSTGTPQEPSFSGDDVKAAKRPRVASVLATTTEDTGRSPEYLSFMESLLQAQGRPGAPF
The experiment in a line: co-IP; endogenous proteins in MOVAS cell whole-cell lysate, Protein G beads, immunoblotting. The following applies: remark: other sources report otherwise. On the technique in general: Immunoblotting shows a protein as a band on a membrane.

Amino acid sequences for entries named in this document (tags omitted).
UniProt P19785: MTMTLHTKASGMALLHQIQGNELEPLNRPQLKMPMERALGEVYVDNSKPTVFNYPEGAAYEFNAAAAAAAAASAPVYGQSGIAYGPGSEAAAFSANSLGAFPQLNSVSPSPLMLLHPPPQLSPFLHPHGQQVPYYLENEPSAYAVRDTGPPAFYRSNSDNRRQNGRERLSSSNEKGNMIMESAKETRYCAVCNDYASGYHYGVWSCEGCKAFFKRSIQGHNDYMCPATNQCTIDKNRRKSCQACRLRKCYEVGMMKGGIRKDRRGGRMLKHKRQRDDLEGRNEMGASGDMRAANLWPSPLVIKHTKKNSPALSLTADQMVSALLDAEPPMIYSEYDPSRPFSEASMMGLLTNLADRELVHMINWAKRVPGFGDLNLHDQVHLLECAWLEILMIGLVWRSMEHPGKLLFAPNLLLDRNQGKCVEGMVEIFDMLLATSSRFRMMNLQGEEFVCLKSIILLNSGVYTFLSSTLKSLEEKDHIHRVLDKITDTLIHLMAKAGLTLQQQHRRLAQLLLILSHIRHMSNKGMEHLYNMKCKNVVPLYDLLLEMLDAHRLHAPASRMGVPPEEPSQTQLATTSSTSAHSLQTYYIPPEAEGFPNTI

Test [2] has as its target ERα, endogenous in MOVAS cells (mouse (endogenous in MOVAS)) (UniProt P19785). Described as above.

Results are given in words; binding and its absence hold for the method and conditions named. In cells and extracts the contact can be indirect. Some results given as binding are weak or reduced against the parent protein; the word gives no strength.

B1: Suppressor of Zeste 12 (SUZ12), endogenous in MOVAS cells, Q80U70 1-741 (protein)
chain: MAPQKHGGGGGGGSGPSAGSGGGGFGGSAAAVAAAASGGKSGGGGCGGGGSYSASSSSAAAAAAAAGAAVLPVKKPKMEHVQADHELFLQAFEKPTQIYRFLRTRNLIAPIFLHRTLTYMSHRNSRTSIKRKTFKVDDMLSKVEKMKGEQESHSLSAHLQLTFTGFFHKNDKPSQNSENEQNSVTLEVLLVKVCHKKRKDVSCPIRQVPTGKKQVPLNPDLNQTKPGNFPSLAVSSNEFEPSNSHMVKSYSLLFRVTRPGRREFNGMINGETNENIDVSEELPARRKRNREDGEKTFVAQMTVFDKNRRLQLLDGEYEVAMQEMEECPISKKRATWETILDGKRLPPFETFSQGPTLQFTLRWTGETNDKSTAPVAKPLATRNSESLHQENKPGSVKPAQTIAVKETLTTELQTRKEKDNSNESRQKLRIFYQFLYNNNTRQQTEARDDLHCPWCTLNCRKLYSLLKHLKLCHSRFIFNYVYHPKGARIDVSINECYDGSYAGNPQDIHRQPGFAFSRNGPVKRTPITHILVCRPKRTKASMSEFLESEDGEVEQQRTYSSGHNRLYFHSDTCLPLRPQEMEVDSEDEKDPEWLREKTITQIEEFSDVNEGEKEVMKLWNLHVMKHGFIADNQMNHACMLFVENYGQKIIKKNLCRNFMLHLVSMHDFNLISIMSIDKAVTKLREMQQKLEKGESATPSNEEIAEEQNGTANGFSETNSKEKALETDGVSGVPKQSKKQKL
Turning to B1, the binding entry in test [1] is on record as “binds”.

B2: KDM4B, endogenous in MOVAS cells (protein, UniProt Q91VY5 1-1086)
chain: MGSEDHSAQNPSCKIMTFRPTMDEFRDFNRYVAYIESQGAHRAGLAKIIPPKEWKPRQTYDDIDDVVIPAPIQQVVTGQSGLFTQYNIQKKAMTVGEYRRLANSEKYCTPRHQDFDDLERKYWKNLTFVSPIYGADISGSLYDDDVAQWNIGNLRTILDMVERECGTIIEGVNTPYLYFGMWKTTFAWHTEDMDLYSINYLHFGEPKSWYAIPPEHGKRLERLAIGFFPGSSQGCDAFLRHKMTLISPIILKKYGIPFSRITQEAGEFMITFPYGYHAGFNHGFNCAESTNFATLRWIDYGKVATQCTCRKDMVKISMDVFVRILQPERYEQWKQGRDLTVLDHTRPTALSSPELSSWSASRTSIKAKLLRRQISVKESRPWRKAEEERRREPTRRPGPASHRRRSQPKKSKPEESRSPGEATAGVSTLDEARGCSRGEAMPEDEEEEELLPSQGHEAEGVEEDGRGKPRPTKARNKKKTPSPSSPPLLSAPPALFPTEEVLRPPPQPKSPGPAMGPMAAEGGPPPTPLNVVPPGAPVEEAEVRPRPIIPMLYVLPRTSSTDGDREHSAHAQLAPMELGPEEENQAQAGDSQGTTPFSKLKVEIKKSRRHPLGRPPTRSPLSVVKQEASSDEEAFLFSGEDDVTDPEALRSLLSLQWKNKAASFQAERKFNAAAALSEPYCAICTLFYPYSQSVQTERDSAVQPPSKSGQRTRPLIPEMCFTSSGENTEPLPANSYVGEDGTSPLISCAHCCLQVHASCYGVRPELAKEGWTCSRCAAHAWTAECCLCNLRGGALQRTTEHRWIHVICAIAVPEVRFLNVIERNPVDVSAIPEQRWKLKCIYCRKRMKRVSGACIQCSYEHCSTSFHVTCAHAAGVLMEPDDWPYVVSITCLKHRASGAGGQLLRTVSLGQIVITKNRNGLYYRCRVIGTTAQTFYEVNFDDGSYSDNLYPESITSRDCLRLGPPPEGELVELRWTDGNLYRARFISMATSLIYQVEFEDGSQLTVKRGDIFTLEEELPKRVRSRLSLSTGTPQEPSFSGDDVKAAKRPRVASVLATTTEDTGRSPEYLSFMESLLQAQGRPGAPF
Turning to B2, in test [2], the binding entry was “binds”.

(Values after article PMC12504744.)
